## Library screen at single concentrations

Measurements from “University of Dundee, Small-Polar-MMV Screening Library” (2021), ChEMBL document CHEMBL3988442.

A: 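Growth of Mycobacterium tuberculosis over 4 days (cholesterol / DPPC medium with tyloxapol); the read-out is not stated. Tested at 50 µM. Higher reads as more growth inhibition (inferred: compounds with an IC50 in retests scored well above the rest). Of about 69,000 compounds tested this way, about 370 (0.54%) reached 50% or more in at least one test.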
B: 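Whole-cell growth test on Mycobacterium tuberculosis, read after 3 days in glucose-containing 7H9 medium; the read-out is not stated. Concentration: 50 µM. Direction is inferred from retests: higher values go with more growth inhibition. Of about 69,000 compounds tested this way, about 760 (1.1%) reached 50% or more in at least one test.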

Each number is a percent effect as filed.
How 0% and 100% were set is not recorded. Most values in the screen are low, and negative values occur.
Compounds were drawn at random from those tested, without regard to their results.
Two or more numbers in one place are separate tests of the same structure; such repeats can differ widely.

Compound | A | B
COC(=O)[C@@H](NC(=O)Nc1ccc(C(C)=O)cc1)C(C)C | -16.87 | -50.08
CC(C)(NS(C)(=O)=O)c1nc(-c2ccncc2)no1 | -22.4 | -35.41
Cc1ccc(N2CCC3(CCN(Cc4ccccn4)CC3)CC2)nn1 | -4.903 | 2.389
CN(C)c1cc(CNC(=O)c2cnccn2)ccn1 | -5.875 | -12.95
O=C(NCc1ccccc1)N1CCC2(CC(=O)N(c3ccsc3)C2)C1 (stereo not given) | 10.39 and 3.484 | 24.47
COC(=O)[C@H](C)NC(=O)Cc1c(C)nc2c(c1C)c(=O)[nH]n2C | -14.24 | 3.797 and -2.627
CC(C)NC(=O)NCc1ccccc1NS(=O)(=O)c1ccccc1 | -2.166 and 11.47 | -2.729
CC(C)N1CC2(CCC1=O)CCN(C(=O)c1cccc(F)c1F)CC2 | -7.758 | 8.743
Cc1ccnn1CC(=O)Nc1cc(-c2ccncc2)[nH]n1 | -1.369 | 9.24
O=C(CCSc1ccccc1F)N1CCN(c2cnccn2)CC1 | -12.48 | -1.019 and 18.25
Cc1[nH]c2c(C)cccc2c1CC(=O)N(C)CCN(C)C.O=C(O)CC(O)(CC(=O)O)C(=O)O | -8.54 and 6.121 | -20.86
O=C(O)C(F)(F)F.[H][C@@]12CO[C@@H](CNS(C)(=O)=O)[C@]1([H])CCN(Cc1ccsc1)C2 | -18.7 | -27.7
N#Cc1ncn(CCC(=O)Nc2ccc(Cl)cc2F)n1 | -16.45 | 4.551
COc1ccc2c(c1)OCC(Cc1ccc(N)nc1C)C2 (stereo not given) | 15.19 | 25.33 and 18.97
CN(C(=O)NCc1ccncc1)C1CCCN(c2ccccc2)C1=O (stereo not given) | 4.662 | 4.072
[H][C@@]12COC[C@]1([H])[C@@H](OCC)CN2C(=O)c1ccc2c(c1)OCO2 | -8.911 | -9.256 and -16.9
Cl.OC1(Cn2ccc3ncccc32)CCN(Cc2ccccc2F)CC1 | -1.355 | 2.107
CCOc1cc(C)nc(N2CCN(C(=O)C(C)NC(C)=O)CC2)n1 (stereo not given) | 8.261 | 2.056 and -25.24
CCCc1cc(C(=O)NCCCn2nnc3ccccc32)no1 | 18.66 | 38.52
O=C(O)C(F)(F)F.O=C(O)C(F)(F)F.[H][C@@]12CN(C(=O)c3cccc(C)n3)C[C@]1([H])OCCN2c1ncccn1 | -10.48 | -14.17
CC1(C(=O)N2CCOCC2)CN(C2CCCCC2)CCO1 (stereo not given) | -16.03 | -32.06
Cc1ocnc1C(=O)N(C)[C@@H]1CC[C@@H](Oc2ccccc2)[C@@H]1O | -4.005 and 4.817 | -1.028
O=C(c1cnc(C2CC2)s1)N1CCCCC1Cn1cccn1 (stereo not given) | -8.244 | 4
CCNS(=O)(=O)c1cccc(CSC)c1 | -14.06 | 9.403
COc1ccc(CCNC(=O)C(C)Nc2cc(C)ccc2C)cc1 (stereo not given) | 3.262 | 8.878
NC(=O)C1CCCN1CCCc1ccc(Cl)cc1 (stereo not given) | -3.73 | 5.989 and 3.472
Cc1ccccc1CCC1CCCN(C(=O)Cc2cc(=O)[nH]c(N)n2)C1 (stereo not given) | -22.29 | -9.573
O=C(Cc1c[nH]c2ncccc12)NCC(O)c1ccccc1F (stereo not given) | -11.12 | -10.36 and -10.79
COc1c(CNCCNC(=O)c2ccccc2)c(C)nn1C.Cl | 6.225 | -26.89 and 0.01329
Cc1nc(-c2cccc(C(=O)O)c2)c[nH]1 | -12.49 | -5.554 and -8.379
O=C(c1ccc(O)c(Cl)c1)N(Cc1ccncc1)C1CC1 | -3.856 | -1.253 and -2.988
O=C(O)C(F)(F)F.[H][C@]12CCN(c3ccc(C)nn3)C[C@@]1([H])CN(Cc1cccc(C)n1)C2 | 3.034 | 16.38
O=C(O)C(=O)O.c1cncc(CN2CCC(c3ccc4c(c3)OCO4)CC2)c1 | -7.717 and -10.48 | -50.1
COc1ccc(F)c(-c2cc(NCCO)nc(N)n2)c1 | -9.925 and -1.808 | -19.12 and 6.149
O=C(O)C(F)(F)F.c1cnc(N2CCOCC3(CN(Cc4cc[nH]n4)CCO3)C2)nc1 (stereo not given) | -17.73 | -6.223 and -25.79
c1cncc(CN2CCCn3nnc(CN4CCCCC4)c3C2)c1 | -16.04 | -18.42
Cc1ccc(C)c(C(=O)N2CCC3(CCC(=O)N(CC(N)=O)C3)CC2)c1 | -21.27 | -61.02
CN(C)Cc1cnc2n1CCN(C(=O)Cc1cccc(F)c1)CC2.O=C(O)C(F)(F)F | 0.3482 | -31.34 and 3.346
Cc1nc(C)n(CC2CN(Cc3ccccc3C#N)CCO2)n1 (stereo not given) | 7.876 | 25.72
CCS(=O)(=O)NC(CCSC)C(=O)Nc1cc(F)ccc1C (stereo not given) | 2.442 | 14.02

Once more, the final 5:

| Compound | A | B |
|---|---|---|
| `c1cncc(CN2CCCn3nnc(CN4CCCCC4)c3C2)c1` | -16.04 | -18.42 |
| `Cc1ccc(C)c(C(=O)N2CCC3(CCC(=O)N(CC(N)=O)C3)CC2)c1` | -21.27 | -61.02 |
| `CN(C)Cc1cnc2n1CCN(C(=O)Cc1cccc(F)c1)CC2.O=C(O)C(F)(F)F` | 0.3482 | -31.34 and 3.346 |
| `Cc1nc(C)n(CC2CN(Cc3ccccc3C#N)CCO2)n1` (stereo not given) | 7.876 | 25.72 |
| `CCS(=O)(=O)NC(CCSC)C(=O)Nc1cc(F)ccc1C` (stereo not given) | 2.442 | 14.02 |